We go through one molecule from article PMC7712234.

Protein sequences, listed by entry. Tags and fused reporters are not part of them.
UniProt C1H8F5: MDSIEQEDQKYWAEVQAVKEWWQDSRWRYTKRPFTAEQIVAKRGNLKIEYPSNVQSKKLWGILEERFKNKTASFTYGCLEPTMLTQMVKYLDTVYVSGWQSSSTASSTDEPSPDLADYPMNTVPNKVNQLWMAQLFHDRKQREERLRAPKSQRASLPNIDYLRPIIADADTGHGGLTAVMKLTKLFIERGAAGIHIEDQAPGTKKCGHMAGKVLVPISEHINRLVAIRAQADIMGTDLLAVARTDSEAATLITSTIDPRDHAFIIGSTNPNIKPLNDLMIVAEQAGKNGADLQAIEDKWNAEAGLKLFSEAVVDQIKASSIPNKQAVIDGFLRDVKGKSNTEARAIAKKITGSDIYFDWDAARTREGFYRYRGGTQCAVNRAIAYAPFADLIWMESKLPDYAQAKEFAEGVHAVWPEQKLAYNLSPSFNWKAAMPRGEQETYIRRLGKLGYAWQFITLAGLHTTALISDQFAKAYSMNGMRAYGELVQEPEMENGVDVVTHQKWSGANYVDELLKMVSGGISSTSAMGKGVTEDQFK

For this experiment, the target named is Paracoccidioides lutzii isocitrate lyase (Paracoccidioides lutzii (endogenous in P. lutzii ATCC-MYA-826)) (UniProt C1H8F5). The experiment is described as follows: native gel or EMSA; blue native PAGE of soluble total protein extracts from mycelium, mycelium-to-yeast transition and yeast; 5-18% gradient gel, Bis-Tris pH 7.0, 15 °C; the phase is not told for each partner. A general note: In EMSA bound probe runs differently from free probe, usually more slowly.

These are yes or no findings as the source states them, for the method shown. Some results given as binding are weak or reduced against the parent protein; the word gives no strength.

B1: triosephosphate isomerase (protein, UniProt Q96VN5 1-249)
chain: MPRKFFVGGNFKMNGTAKSITHIITNLNSAKLDPSTEIVIAPPAIYLVLARQLANGQVAVSAQNVFDKPNGAFTGELSVEQLRDEKITWTLAGHSERRVLLREDDEFVARKTKAAINGGLNVILCIGESLEEREAGKTIDVVTRQLDAVAEEVSPAEWNKVVIAYEPIWAIGTGKVATTEQAQEVHASIRKWLNEKISPEAAENIRVIYGGSVTENNCRDLAAQPDVDGFLVGGASLKPAFVDIINARL
In the case of B1, the binding entry was “binds”.
